No constants are given. Whether binding was seen depends on the method and setting. For some of these results: Binding seen in cells or lysates may run through a third protein. Some binding calls cover weakened binding; strength is not graded here.

By UniProt entry, the sequences of proteins in these tests, tags left out. Where a name states a change or a piece, a line headed by the entry shows the natural chain unless it says otherwise. Chains listed by the source or under a name are the forms on record and can include a tag or linker. Residues count along the entry.
UniProt P40763: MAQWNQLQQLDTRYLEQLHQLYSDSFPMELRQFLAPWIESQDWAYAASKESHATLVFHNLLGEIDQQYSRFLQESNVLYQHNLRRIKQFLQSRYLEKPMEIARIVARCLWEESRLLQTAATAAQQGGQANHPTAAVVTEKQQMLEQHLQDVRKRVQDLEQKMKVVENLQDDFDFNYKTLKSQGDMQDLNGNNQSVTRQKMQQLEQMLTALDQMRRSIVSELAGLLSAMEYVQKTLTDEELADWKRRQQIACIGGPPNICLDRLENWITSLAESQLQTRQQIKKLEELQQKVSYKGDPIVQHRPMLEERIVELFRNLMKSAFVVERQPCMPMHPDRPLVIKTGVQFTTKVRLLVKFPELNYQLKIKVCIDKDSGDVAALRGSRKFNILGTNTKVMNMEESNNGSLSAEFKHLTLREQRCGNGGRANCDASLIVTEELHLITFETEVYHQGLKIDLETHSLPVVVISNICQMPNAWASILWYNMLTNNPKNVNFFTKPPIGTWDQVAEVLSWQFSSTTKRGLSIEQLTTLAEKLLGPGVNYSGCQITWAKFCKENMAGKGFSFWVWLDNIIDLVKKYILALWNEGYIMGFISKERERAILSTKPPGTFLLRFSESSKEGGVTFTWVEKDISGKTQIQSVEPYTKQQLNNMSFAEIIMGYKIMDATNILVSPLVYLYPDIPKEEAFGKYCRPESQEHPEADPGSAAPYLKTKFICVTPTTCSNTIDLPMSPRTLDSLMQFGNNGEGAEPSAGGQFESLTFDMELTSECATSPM
Flag-tagged STAT3 N-terminus fragment 1-475aa: residues 1-475 of P40763
Flag-tagged STAT3 C-terminus fragment 476-770aa: residues 476-770 of P40763
UniProt P07355: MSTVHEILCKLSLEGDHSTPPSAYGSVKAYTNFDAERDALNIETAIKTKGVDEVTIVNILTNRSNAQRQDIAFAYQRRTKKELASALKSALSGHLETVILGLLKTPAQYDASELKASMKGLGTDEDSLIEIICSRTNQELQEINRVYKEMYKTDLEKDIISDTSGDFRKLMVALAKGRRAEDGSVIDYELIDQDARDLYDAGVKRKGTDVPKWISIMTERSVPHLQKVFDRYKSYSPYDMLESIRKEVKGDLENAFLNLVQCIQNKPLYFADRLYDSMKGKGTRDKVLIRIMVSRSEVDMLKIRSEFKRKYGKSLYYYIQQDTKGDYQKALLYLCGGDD

Eight substances from publication PMC4741582 can be followed below.

Test [1] has as its target Flag-tagged STAT3 C-terminus fragment 476-770aa (human) (UniProt P40763). Put plainly: co-IP; HEK293T co-transfected with Flag-tagged STAT3 and GFP-tagged Anxa2 constructs, 48 h; lysates incubated with anti-Flag beads at 4°C overnight; blots with anti-Flag or anti-GFP.
Test [2] addresses Flag-tagged STAT3 N-terminus fragment 1-475aa (human) (UniProt P40763). Described as above.
The target of test [3] is Flag-tagged full length STAT3 (human) (UniProt P40763). The test is described as above.
Test [4] deals with C-terminal domain of STAT3 (476-770) in pFN11A (BIND) vector (human) (UniProt P40763). Put plainly: two-hybrid; CheckMate/Flexi Vector Mammalian Two-Hybrid System in 293T cells; STAT3 in pFN11A (BIND), Anxa2 in pFN10A (ACT), pGL4.31 reporter; relative Luc/Ren after 48 h.
Test [5] has as its target N-terminal domain of STAT3 (1-475) in pFN11A (BIND) vector (human) (UniProt P40763). The description is as above.
Test [6] addresses full length STAT3 in pFN11A (BIND) vector (human) (UniProt P40763). The test is described as above.
For test [7], the target named is annexin A2 (Anxa2), endogenous (human (endogenous in T47D)) (UniProt P07355). Put plainly: co-IP; endogenous proteins in T47D lysate; cells serum-starved, with or without EGF for 72 h; precipitated with mouse anti-Anxa2 (protein G-agarose) or rabbit anti-STAT3 (protein A-agarose); normal IgG as negative control.
Test [8] addresses STAT3, endogenous (human (endogenous in T47D)) (UniProt P40763). Described as above.

Turning to “GFP-tagged Anxa2 N-terminus fragment 1-92aa (from UniProt P07355 1-92) (domain or fragment)”, the binding entry in test [1], in test [2] and in test [3] was “binds” throughout.
Regarding “C-terminal fragment of Anxa2 (93-339) in pFN10A (ACT) vector (from UniProt P07355 93-339) (domain or fragment)”, the binding result in test [4] was “binds”; in test [5], “no binding”.
On to “GFP-tagged Anxa2 C-terminus fragment 93-339aa (from UniProt P07355 93-339) (domain or fragment)”, for which the binding result is recorded as “binds” in test [1], “no binding” in test [2] and “binds” in test [3].
For “full length Anxa2 in pFN10A (ACT) vector (from UniProt P07355 1-339)”, the binding result in test [4] and in test [6] was “binds” in each case.
With “STAT3, endogenous (from UniProt P40763 1-770)”, in test [7], the binding entry is reported as “binds”.
Take “annexin A2 (Anxa2), endogenous (from UniProt P07355 1-339)”: the binding result in test [8] is “binds”.
Regarding “N-terminal fragment of Anxa2 (1-92) in pFN10A (ACT) vector (from UniProt P07355 1-92) (domain or fragment)”, the binding result in test [4] and in test [5] was “binds” each time.
As for “GFP-tagged full length Anxa2 (from UniProt P07355 1-339)”, the binding entry in test [1] and in test [2] was “binds” each time.
